The test is described as follows: qHTS Assay to Find Inhibitors of Chronic Active B-Cell Receptor Signaling. The note with it: ABC-DLBCL IkBa-CBG/CBR reporter, luminescence ratio (green luciferase fused to IkBa over red control in TMD8 lymphoma cells), 4 h. The source says:
NIH Molecular Libraries Probe Production Network [MLPCN] NIH Chemical Genomics Center [NCGC] MLPCN Grant: 1 R03 DA031086-01A1 PI Name: Dr. R. Eric Davis NCGC Assay Overview: Diffuse large B-cell lymphoma (DLBCL) is the most common category of non-Hodgkin lymphoma, with ~20,000 new cases per year in the United States. DLBCL should be regarded as a collection of different neoplasms. Microarray gene expression analysis has defined two principal types of DLBCL, named for their similarity to normal B cell stages or activation states: a germinal center B-cell (GCB) type, and an activated B-cell (ABC) type. In ABC-DLBCL, a constitutive high-level activity of the NF-kappaB family of transcription factors has been observed (1) and NF-kappaB target genes are more highly expressed in ABC primary tumors than in GCB tumors. Functional studies have shown a constitutive high-level activity of the IkappaB (inhibitor of kappa-B) kinase (IKK) complex. […] Further analysis of DLBCL primary tumors for NF-kappaB target gene expression imply that although CARD11 is required for constitutive IKK activity in all ABC-DLBCL lines, mutations in CARD11 may be the root cause of IKK activation only in lines or tumors with such mutations. In other words, CARD11 mutations may explain NF-kappaB activation in only 10% of ABC-DLBCL cases. […] This process has been termed 'chronic active BCR signaling' (CABS). The goal of this screen is to find small-molecule inhibitors of the CABS pathway found in ABC-DLBCL lines using a cell-based assay that measures IkappaBalpa stability, which has already been extensively validated in the OCI-Ly3 line (PubChem AID:445; REF: 4). […] The assay uses green (CBG68) and red (CBR) emitting beetle luciferases [Chroma-GloTM developed by Promega Corp.] where the green luciferase is fused to IkappaBalpha and the red luciferase is present in its native state. Both luciferase genes are stably present in the TMD8 human ABC DLBCL cell line, but their expression is under the control of tetracycline-inducible promoters. Following the addition of doxycycline to induce expression of the luciferases, the green luminescence in control cultures rises only slowly because the CBG fusion partner IkappaBalpha is targeted by IKK activity for rapid degradation. In contrast, green luminescence rises rapidly in the presence of proteasome inhibitors or IKK inhibitors. The rise in red luminescence of CBR is not affected by proteasome or IKK inhibitors, and serves as normalization for cell number and nonspecific effects. Compounds were screened as a concentration-titration series that ranged from 46 uM to 3 nM.
NCGC Assay Protocol Summary: Cells were seeded in 1536-well plates at 5000 cells/4uL in IMDM medium containing 0.5% FBS, w/o phenol red, 1% penicillin/streptomycin. Then, 23 nL of compounds or DMSO were delivered to each well using a pin tool. One uL 20ng/ml doxycycline was then dispensed into white solid 1536-well plates and the plates were incubated at 37C/5% C02 in a cell incubator for 4 hrs. Then 4 uL luminescent substrate mix (in-house prepared: 150 mM Tris-Cl, pH 7.6, 3 mM MgCl2, 1% Triton X-100, 5 mM DTT, 0.2 mM CoA, 0.15 mM ATP, 5 mM D-luciferin, final concentrations) was added to each well. The plate was incubated at r.t. for 10-15 min. The plates were measured on a ViewLux plate reader for green luminescence (540/20 nm filter) and red luminescence (618/8 nm filter). The green and red luminescent signals were corrected for red and green luminescence filter overlap using previously determined filter calibration constants (determined using the procedure outlined in the Promega Technical Manual; REF 4). The %Activity was determined from the ratio of corrected green/red luminescent values. MG132 were used as control. […] Red luminescent %Activity was normalized to the difference between red luminesence in basal cells (0%Activity) and zero luminescence (-100% Activity). […]
In general terms: Quantitative high-throughput screening tests each substance at several concentrations.

The mark [1] stands for this setting: measured here: CBR red luminescence, cell number.
The mark [2] stands for this setting: measured here: IkBa-CBG green luminescence.

Some of the results follow. The main result of the screen is listed elsewhere. These columns were measured beside it and carry no call. Compounds called inactive in the main read-out are mostly missing here. Potencies come from curve fits of mixed quality, noted in brackets.

The text below walks through data of PubChem BioAssay AID493014 (National Center for Advancing Translational Sciences (NCATS), 2011).

In the case of `CC1=C(C(=O)OC2CCCCC2)C(c2ccc(F)cc2)NC(=O)N1` (configuration not stated), the AC50 under setting [1] is 35.5 µM [falling, single point].
Still for that read-out and setting: for `CN(C)CCCNc1oc(-c2cccc(Cl)c2)nc1C#N` the value was 7.31 µM [rising, partial curve, poor fit]; for `CC1CCCN(C(=S)NC2CCCC2)C1` (configuration not stated), 22.4 µM [rising, single point]; for `Cc1cc(C)cc(Nc2nc3c([nH]2)c(=O)n(C)c(=O)n3C)c1`, 0.501 µM [falling, full curve].
Take `CCc1nc(N2CCN(C(=S)NCCCOC)CC2)c2c3c(sc2n1)CCCC3`: the AC50 under setting [1] is 14.1 µM [falling, single point].
For the compound `CCCCOC(=O)c1ccc(NC(=O)C(=O)NCc2ccco2)cc1`, the AC50 under setting [1] is 2 µM [falling, partial curve, poor fit].
As to `CC(C)Cn1c(N)c(C(=O)COC(=O)c2ccc(O)cc2)c(=O)n(C)c1=O`, under setting [1], the AC50 is 11.2 µM [falling, single point].
Still for that read-out and setting: for `CCN(CC)c1ccc(/C=C/c2nc3ccccc3s2)cc1` the value was 1.78 µM [falling, full curve, poor fit].
For the compound `O=C(Nc1ccc(Br)cc1Cl)c1cnccn1`, the AC50 under setting [1] was 0.651 µM [rising, full curve, poor fit].
In the case of `COC(=O)C1=C(C)NC(=O)/C1=C\c1cc(C)n(-c2ccc(F)cc2)c1C`, under setting [1], the AC50 was 35.5 µM [falling, single point].
Take `COC(=O)c1[nH]c2cc(OC)ccc2c1NC(=O)CCN1CCN(Cc2ccc3c(c2)OCO3)CC1`: the AC50 under setting [1] was 32.6 µM [rising, partial curve, poor fit].
As for `N/C(=N\OC(=O)c1ccccc1Cl)c1ccccn1`, the AC50 under setting [1] is 15.8 µM [falling, single point].
For the compound `COc1ccccc1NC(=S)NC(=O)Cc1ccc(Cl)cc1`, the AC50 under setting [1] is 3.98 µM [falling, partial curve, poor fit].
For `Cc1oc(-c2ccccc2)nc1C(=O)O`, under setting [2], the AC50 was 1.78 µM [rising, full curve, poor fit].
In the case of `Cc1cccc(C)c1NC(=O)/C(C#N)=C/c1ccc(-c2ccc(C(=O)O)cc2)o1`, the AC50 under setting [1] was 10 µM [falling, partial curve, poor fit].
For the compound `Cc1cc(N)c2cc(NC(=O)/C=C/c3ccccc3Cl)ccc2n1`, the AC50 under setting [1] is 17.8 µM [rising, single point].
Still for that read-out and setting: for `Cc1cc2ncn(C(=O)N3CCOCC3)c2cc1C` the value was 7.31 µM [rising, partial curve, poor fit].
Take `C/C(=N\NC(=O)c1cc(C)oc1C)c1ccc(C)c([N+](=O)[O-])c1`: the AC50 under setting [1] was 1.84 µM [falling, full curve].
The same measure, in the same setting: then `O=C(/C=C/c1ccc(S(=O)(=O)N2CCOCC2)cc1)N1CCN(c2ccc(F)cc2)CC1`, with 22.4 µM [falling, partial curve, poor fit].
Take `CCOC(=O)c1nnn(-c2nonc2N)c1-c1ccc(OC)cc1`: the AC50 under setting [1] is 0.517 µM [rising, full curve, poor fit].
On to `Cc1ccc(CSc2nnc(-c3ccccc3N)c(=O)[nH]2)cc1`, for which the AC50 under setting [1] was 25.9 µM [falling, single point].
Consider `COc1ccc(OC)c(C(=O)COC(=O)C2CC3CCCC(C2)C3=O)c1` (configuration not stated), for which the AC50 under setting [1] is 13 µM [rising, partial curve].
On the same count and under the same terms, then `CCOC(=O)c1sc(=NC(=O)c2ccc(Br)cc2)n(C)c1C`, with 7.08 µM [falling, full curve].
Take `Cc1ccc2c(c1)nnn2C1CCN(C(=O)C23CC4CC(CC(C4)C2)C3)CC1`: the AC50 under setting [1] was 3.66 µM [rising, full curve, poor fit].
Regarding `Cc1cc(C)nc(Nc2n[nH]c(-c3ccccc3C)n2)n1`, under setting [1], the AC50 was 1.41 µM [falling, full curve].
As for `CC(=O)[C@@H]1[C@@H]2C(=O)N(c3ccccc3F)C(=O)[C@@H]2[C@H]2c3ccccc3C=NN12`, under setting [1], the AC50 is 17.8 µM [falling, partial curve].
Consider `Cc1onc(-c2c(Cl)cccc2Cl)c1C(=O)N/N=C(\N)COc1ccc(Cl)cc1`, for which the AC50 under setting [1] was 14.6 µM [falling, partial curve, poor fit].
Turning to `COc1ccc(NC(=O)c2cccnc2SC)cc1OC`, the AC50 under setting [1] was 10 µM [falling, partial curve].
Take `CCOCCc1nnc(NC(=O)c2cc(OC)c(OC)c(OC)c2)s1`: under setting [1], the AC50 is 6.51 µM [rising, partial curve, poor fit].
Turning to `Cc1ccc(C(=O)NCC(=O)N2CCN(c3ncccn3)CC2)s1`, the AC50 under setting [1] was 20.6 µM [rising, single point].
`COc1ccc(-n2c(SCCC(=O)O)nnc2-c2ccncc2)cc1`: the AC50 under setting [1] is 0.461 µM [falling, partial curve, poor fit].
As to `O=C(Oc1ccc(Cl)c2cccnc12)c1ccco1`, the AC50 is, setting by setting: under setting [1], 6.51 µM [falling, single point]; under setting [2], 25.9 µM [falling, single point].
Turning to `O=C(COC(=O)C1(c2ccc(F)cc2)CCCC1)NCc1ccco1`, under setting [1], the AC50 was 22.4 µM [falling, partial curve, poor fit].
The same measure, in the same setting: for `O=C(Nc1ccccc1)c1ccccc1O` the value was 14.1 µM [falling, partial curve]; for `CCCCOC(=O)n1c(=S)oc2cc(Cl)ccc21`, 11.2 µM [falling, partial curve]; for `CC(=O)NS(=O)(=O)c1ccc(NC(=O)/C=C/c2ccc(C)o2)cc1`, 11.2 µM [falling, partial curve, poor fit].
`COc1cc(NC(=S)NCCc2c[nH]c3ccccc23)c(OC)cc1Cl`: the AC50 under setting [1] was 29.1 µM [falling, single point].
Take `Clc1ccc(SCc2nc3ccccc3[nH]2)cc1`: the AC50 under setting [1] is 8.91 µM [falling, partial curve, poor fit].
Regarding `COC(=O)c1ccc(NC(=O)c2ccccc2N(C)S(=O)(=O)c2ccccc2)cc1`, under setting [1], the AC50 is 0.146 µM [falling, full curve, poor fit].
Same read-out and setting: then `CC1(c2ccccc2)NC(=O)N(CC(=O)Nc2ccc(S(N)(=O)=O)cc2)C1=O` (configuration not stated), with 35.5 µM [rising, single point]; and `Cc1cc(N/N=C/c2ccccc2O)c2ccccc2n1`, with 11.2 µM [falling, partial curve]; and `COC(=O)C1C(O)=C(C=NCC(C)N=CC2=C(O)C(C(=O)OC)C(C)(C)CC2=O)C(=O)CC1(C)C` (configuration not stated), with 15.8 µM [rising, single point].
Take `C/C(=N\NC(=O)c1ccccc1OCCOc1ccccc1)c1ccccc1F`: under setting [1], the AC50 was 10.3 µM [falling, partial curve].
Still for that read-out and setting: then `O=C(CSc1nc2nc(-c3cccs3)cc(C(F)(F)F)c2c(=O)[nH]1)Nc1ccc(F)c(F)c1`, with 12.6 µM [falling, partial curve].
With `COc1ccc(Nc2cc(C)c3ccc(O)cc3n2)cc1`, the AC50 under setting [1] is 10 µM [rising, partial curve, poor fit].
For the compound `COc1ccc2nc(NC(=O)CS(=O)(=O)c3ccc(C)cc3)sc2c1`, the AC50 under setting [1] was 35.5 µM [falling, single point].
For the compound `Cc1ccc(NC(=O)N2CCCC2C(=O)NCC2CCCO2)cc1` (configuration not stated), under setting [1], the AC50 was 0.562 µM [rising, full curve, poor fit].
For `Cc1ccc(N(C(=O)c2nsc(Cl)c2Cl)C(C(=O)NC2CCCC2)c2ccc(O)cc2)cc1C` (configuration not stated), under setting [1], the AC50 was 14.6 µM [falling, partial curve].
As for `CCCCOC(=O)c1ccc(NC(=O)C(=O)NCC2CCCO2)cc1` (configuration not stated), the AC50 under setting [1] was 8.91 µM [falling, partial curve, poor fit].
Consider `NC(=S)n1[nH]c(-c2ccccc2)c(N=Nc2ccccc2C(=O)N2CCOCC2)c1=O`, for which the AC50 under setting [1] is 6.31 µM [falling, full curve, poor fit] and the AC50 under setting [2] was 1.12 µM [rising, full curve, poor fit].
In the case of `NNC(=O)c1oc2nc(-c3cccs3)cc(-c3ccco3)c2c1N`, the AC50 under setting [1] was 20 µM [falling, single point].
On to `Cc1ccc(S(=O)(=O)N2CCOCC2)cc1NC(=O)COC(=O)c1ccc(OCc2c(C)noc2C)cc1`, for which, under setting [2], the AC50 was 23.1 µM [falling, single point].
Consider `O=C(N/N=C/c1ccccn1)c1ccc(Br)cc1`, for which the AC50 reads like this: under setting [1], 23.1 µM [rising, single point]; under setting [2], 18.4 µM [falling, single point].
Take `Nc1ccc(/C=C/C(=O)c2ccco2)cc1`: under setting [1], the AC50 is 16.4 µM [falling, single point].
For `COc1cc(C2N(c3cccc(Cl)c3)C(=O)C3CCCN32)cc(OC)c1OC` (configuration not stated), the AC50 under setting [1] was 0.92 µM [rising, full curve, poor fit].
In the case of `CC(=O)N(C)c1ccc(OCC(O)COc2ccc(N(C)C(C)=O)cc2)cc1`, the AC50 under setting [1] is 20.6 µM [rising, single point].
As to `CC(C)(C)c1ccccc1OCC(=O)Nc1ccccc1C(=O)NCc1cccnc1`, under setting [1], the AC50 is 35.5 µM [falling, single point].
The same measure, in the same setting: for `CCCN1C(=O)c2ccc(C(=O)Nc3ccccc3C(=O)O)cc2C1=O` the value was 7.08 µM [falling, partial curve].
`COc1ccccc1N1CCN(c2ccnc3cc(Cl)ccc23)CC1`: the AC50 under setting [2] was 15.8 µM [falling, single point].
As for `COc1cc(OC)cc(C(=O)Nc2ccn(C)n2)c1`, the half-maximal activity concentration (AC50) under setting [1] is 14.6 µM [falling, partial curve, poor fit].
Consider `O=C(NCc1ccccn1)c1coc(=O)c(Br)c1`, for which, under setting [1], the AC50 was 23.1 µM [rising, single point].
On to `COc1ccc(C(=O)NCC2OCCc3ccccc32)c(O)c1` (configuration not stated), for which the AC50 under setting [1] was 0.731 µM [rising, full curve].
On to `CC1CCN(C(=O)c2ccc(COc3ccccc3Cl)o2)CC1`, for which, under setting [1], the AC50 is 35.5 µM [falling, single point].
Consider `Cc1cc(C(=O)COc2ncnc3sccc23)c(C)n1C1CC1`, for which the AC50 under setting [1] was 2 µM [rising, partial curve].

Usually AC50 stands for the midpoint of the concentration-response curve, whichever way the signal moves.
